# Results reported in PubChem BioAssay AID188 (DTP/NCI, 2004).
# Shown are survivors of the treated group in tumour-free mice. Survivors were counted at the toxicity check, usually on the fifth day, unless a day is given; later deaths do not show. Schedule codes are those of the source, taken here to give the interval after Q, in days (D) or hours (H), and the number of doses after X. Counts like (3×) count equal records among those shown. Some entries were tested several times; their values stand side by side, smallest first.
# Test system: CD2F1 mice, nontumored, toxicity/survival
# Test: NCI In Vivo Anticancer Drug Screen. Data for tumor model Nontumored Animals (Toxicity Test) in CD2F1 (CDF1) mice
# [1] = dose: 64.0 mg/kg/injection, schedule: Q04DX003 (ip), vehicle: saline with Tween-80
# [2] = dose: 128.0 mg/kg/injection, schedule: Q04DX003 (ip), vehicle: saline with Tween-80
# [3] = dose: 256.0 mg/kg/injection, schedule: Q04DX003 (ip), vehicle: saline with Tween-80
compound,measurement,setting,value
CN(C)c1nc(N(C)C)nc(N(C)C)n1,survivor count,"dose: 8.0 mg/kg/injection, schedule: Q03HX024 (ip), vehicle: Klucel (hydroxypropylcellulose) (HPC)",8 of 8
same,survivor count,"dose: 16.0 mg/kg/injection, schedule: Q03HX008 (ip), vehicle: Klucel (hydroxypropylcellulose) (HPC)",8 of 8
same,survivor count,"dose: 16.0 mg/kg/injection, schedule: Q03HX016 (ip), vehicle: Klucel (hydroxypropylcellulose) (HPC)",8 of 8
same,survivor count,"dose: 16.0 mg/kg/injection, schedule: Q03HX024 (ip), vehicle: Klucel (hydroxypropylcellulose) (HPC)",8 of 8
same,survivor count,"dose: 32.0 mg/kg/injection, schedule: Q01DX009 (ip), vehicle: Klucel (hydroxypropylcellulose) (HPC)",8 of 8
same,survivor count,"dose: 32.0 mg/kg/injection, schedule: Q03HX008 (ip), vehicle: Klucel (hydroxypropylcellulose) (HPC)",8 of 8
same,survivor count,"dose: 32.0 mg/kg/injection, schedule: Q03HX016 (ip), vehicle: Klucel (hydroxypropylcellulose) (HPC)",8 of 8
same,survivor count,"dose: 32.0 mg/kg/injection, schedule: Q03HX024 (ip), vehicle: Klucel (hydroxypropylcellulose) (HPC)",8 of 8
same,survivor count,"dose: 64.0 mg/kg/injection, schedule: Q01DX009 (ip), vehicle: Klucel (hydroxypropylcellulose) (HPC)",8 of 8
same,survivor count,"dose: 64.0 mg/kg/injection, schedule: Q03HX008 (ip), vehicle: Klucel (hydroxypropylcellulose) (HPC)",7 of 8
same,survivor count,"dose: 64.0 mg/kg/injection, schedule: Q03HX016 (ip), vehicle: Klucel (hydroxypropylcellulose) (HPC)",8 of 8
same,survivor count,"dose: 64.0 mg/kg/injection, schedule: Q03HX024 (ip), vehicle: Klucel (hydroxypropylcellulose) (HPC)",8 of 8
same,survivor count,"dose: 64.0 mg/kg/injection, schedule: Q04DX003 (ip), vehicle: Klucel (hydroxypropylcellulose) (HPC)",8 of 8
same,survivor count,"dose: 128.0 mg/kg/injection, schedule: Q01DX001 (ip), vehicle: Klucel (hydroxypropylcellulose) (HPC)",8 of 8
same,survivor count,"dose: 128.0 mg/kg/injection, schedule: Q01DX009 (ip), vehicle: Klucel (hydroxypropylcellulose) (HPC)",8 of 8
same,survivor count,"dose: 128.0 mg/kg/injection, schedule: Q03HX008 (ip), vehicle: Klucel (hydroxypropylcellulose) (HPC)",0 of 8
same,survivor count,"dose: 128.0 mg/kg/injection, schedule: Q03HX016 (ip), vehicle: Klucel (hydroxypropylcellulose) (HPC)",0 of 8
same,survivor count,"dose: 128.0 mg/kg/injection, schedule: Q03HX024 (ip), vehicle: Klucel (hydroxypropylcellulose) (HPC)",0 of 8
same,survivor count,"dose: 128.0 mg/kg/injection, schedule: Q04DX003 (ip), vehicle: Klucel (hydroxypropylcellulose) (HPC)",8 of 8
same,survivor count,"dose: 128.0 mg/kg/injection, schedule: Q08DX002 (ip), vehicle: Klucel (hydroxypropylcellulose) (HPC)",8 of 8
same,survivor count,"dose: 256.0 mg/kg/injection, schedule: Q01DX001 (ip), vehicle: Klucel (hydroxypropylcellulose) (HPC)",8 of 8
same,survivor count,"dose: 256.0 mg/kg/injection, schedule: Q01DX009 (ip), vehicle: Klucel (hydroxypropylcellulose) (HPC)",4 of 8
same,survivor count,"dose: 256.0 mg/kg/injection, schedule: Q04DX003 (ip), vehicle: Klucel (hydroxypropylcellulose) (HPC)",8 of 8
same,survivor count,"dose: 256.0 mg/kg/injection, schedule: Q08DX002 (ip), vehicle: Klucel (hydroxypropylcellulose) (HPC)",8 of 8
same,survivor count,"dose: 512.0 mg/kg/injection, schedule: Q01DX001 (ip), vehicle: Klucel (hydroxypropylcellulose) (HPC)",7 of 8
same,survivor count,"dose: 512.0 mg/kg/injection, schedule: Q01DX009 (ip), vehicle: Klucel (hydroxypropylcellulose) (HPC)",0 of 8
same,survivor count,"dose: 512.0 mg/kg/injection, schedule: Q04DX003 (ip), vehicle: Klucel (hydroxypropylcellulose) (HPC)",8 of 8
same,survivor count,"dose: 512.0 mg/kg/injection, schedule: Q08DX002 (ip), vehicle: Klucel (hydroxypropylcellulose) (HPC)",8 of 8
same,survivor count,"dose: 1024.0 mg/kg/injection, schedule: Q01DX001 (ip), vehicle: Klucel (hydroxypropylcellulose) (HPC)",0 of 8
same,survivor count,"dose: 1024.0 mg/kg/injection, schedule: Q04DX003 (ip), vehicle: Klucel (hydroxypropylcellulose) (HPC)",0 of 8
same,survivor count,"dose: 1024.0 mg/kg/injection, schedule: Q08DX002 (ip), vehicle: Klucel (hydroxypropylcellulose) (HPC)",0 of 8
CN(Cc1ccccc1)/N=N/c1nc[nH]c1C(N)=O,survivor count,"dose: 8.0 mg/kg/injection, schedule: Q03HX016 (ip), vehicle: saline with Tween-80",8 of 8
same,survivor count,"dose: 8.0 mg/kg/injection, schedule: Q03HX024 (ip), vehicle: saline with Tween-80",8 of 8
same,survivor count,"dose: 16.0 mg/kg/injection, schedule: Q03HX016 (ip), vehicle: saline with Tween-80",8 of 8
same,survivor count,"dose: 16.0 mg/kg/injection, schedule: Q03HX024 (ip), vehicle: saline with Tween-80",8 of 8
same,survivor count,"dose: 32.0 mg/kg/injection, schedule: Q03HX016 (ip), vehicle: saline with Tween-80",8 of 8
same,survivor count,"dose: 32.0 mg/kg/injection, schedule: Q03HX024 (ip), vehicle: saline with Tween-80",8 of 8
same,survivor count,"dose: 64.0 mg/kg/injection, schedule: Q01DX009 (ip), vehicle: saline with Tween-80",8 of 8
same,survivor count,"dose: 64.0 mg/kg/injection, schedule: Q03HX016 (ip), vehicle: saline with Tween-80",8 of 8
same,survivor count,"dose: 64.0 mg/kg/injection, schedule: Q03HX024 (ip), vehicle: saline with Tween-80",8 of 8
same,survivor count,[1],8 of 8
same,survivor count,"dose: 64.0 mg/kg/injection, schedule: Q08DX002 (ip), vehicle: saline with Tween-80",8 of 8
same,survivor count,"dose: 128.0 mg/kg/injection, schedule: Q01DX009 (ip), vehicle: saline with Tween-80",8 of 8
same,survivor count,[2],8 of 8
same,survivor count,"dose: 128.0 mg/kg/injection, schedule: Q08DX002 (ip), vehicle: saline with Tween-80",8 of 8
same,survivor count,"dose: 256.0 mg/kg/injection, schedule: Q01DX009 (ip), vehicle: saline with Tween-80",8 of 8
same,survivor count,[3],8 of 8
same,survivor count,"dose: 256.0 mg/kg/injection, schedule: Q08DX002 (ip), vehicle: saline with Tween-80",8 of 8
same,survivor count,"dose: 512.0 mg/kg/injection, schedule: Q01DX009 (ip), vehicle: saline with Tween-80",6 of 8
same,survivor count,"dose: 512.0 mg/kg/injection, schedule: Q04DX003 (ip), vehicle: saline with Tween-80",8 of 8
same,survivor count,"dose: 512.0 mg/kg/injection, schedule: Q08DX002 (ip), vehicle: saline with Tween-80",7 of 8
CC(C)CC(NC(=O)C(N)Cc1ccc(N(CCCl)CCCl)cc1)C(=O)O (configuration not stated),survivor count,"dose: 1.0 mg/kg/injection, schedule: Q04DX003 (ip), vehicle: saline with Tween-80",8 of 8
same,survivor count,"dose: 2.0 mg/kg/injection, schedule: Q04DX003 (ip), vehicle: saline with Tween-80",8 of 8
same,survivor count,"dose: 3.7 mg/kg/injection, schedule: Q04DX003 (ip), vehicle: saline with Tween-80",8 of 8
same,survivor count,"dose: 4.0 mg/kg/injection, schedule: Q04DX003 (ip), vehicle: saline with Tween-80",8 of 8
same,survivor count,"dose: 5.6 mg/kg/injection, schedule: Q04DX003 (ip), vehicle: saline with Tween-80",8 of 8 (2×)
same,survivor count,"dose: 8.0 mg/kg/injection, schedule: Q04DX003 (ip), vehicle: saline with Tween-80",8 of 8 (2×)
same,survivor count,"dose: 8.4 mg/kg/injection, schedule: Q04DX003 (ip), vehicle: saline with Tween-80",8 of 8 (2×)
same,survivor count,"dose: 12.6 mg/kg/injection, schedule: Q04DX003 (ip), vehicle: saline with Tween-80",8 of 8 (2×)
same,survivor count,"dose: 16.0 mg/kg/injection, schedule: Q04DX003 (ip), vehicle: saline with Tween-80",6 of 8 and 8 of 8 (2×)
same,survivor count,"dose: 18.9 mg/kg/injection, schedule: Q04DX003 (ip), vehicle: saline with Tween-80",8 of 8 (2×)
same,survivor count,"dose: 28.4 mg/kg/injection, schedule: Q04DX003 (ip), vehicle: saline with Tween-80",8 of 8 (2×)
same,survivor count,"dose: 32.0 mg/kg/injection, schedule: Q04DX003 (ip), vehicle: saline with Tween-80",6 of 8 and 8 of 8
same,survivor count,"dose: 42.6 mg/kg/injection, schedule: Q04DX003 (ip), vehicle: saline with Tween-80",8 of 8 (2×)
same,survivor count,[1],"2 of 8, 6 of 8, 8 of 8"
same,survivor count,"dose: 96.0 mg/kg/injection, schedule: Q04DX003 (ip), vehicle: saline with Tween-80",8 of 8
same,survivor count,[2],0 of 8 and 4 of 8
same,survivor count,[3],0 of 8 and 1 of 8
O=NN(CCCl)C(=O)NCCCl,survivor count,"dose: 5.0 mg/kg/injection, schedule: Q04DX003 (ip), vehicle: saline + alcohol",4 of 4
same,survivor count,"dose: 7.5 mg/kg/injection, schedule: Q01DX001 (ip), vehicle: saline + alcohol",8 of 8
same,survivor count,"dose: 8.0 mg/kg/injection, schedule: Q01DX001 (ip), vehicle: saline + alcohol",4 of 4
same,survivor count,"dose: 10.0 mg/kg/injection, schedule: Q04DX003 (ip), vehicle: saline + alcohol",4 of 4
same,survivor count,"dose: 15.0 mg/kg/injection, schedule: Q01DX001 (ip), vehicle: saline + alcohol",8 of 8
same,survivor count,"dose: 16.0 mg/kg/injection, schedule: Q01DX001 (ip), vehicle: saline + alcohol",4 of 4
same,survivor count,"dose: 17.0 mg/kg/injection, schedule: Q01DX001 (ip), vehicle: saline + alcohol",4 of 4
same,survivor count,"dose: 20.0 mg/kg/injection, schedule: Q01DX001 (ip), vehicle: saline + alcohol",10 of 10 (2×)
same,survivor count,"dose: 20.0 mg/kg/injection, schedule: Q04DX003 (ip), vehicle: saline + alcohol",4 of 4
same,survivor count,"dose: 29.0 mg/kg/injection, schedule: Q01DX001 (ip), vehicle: saline + alcohol",4 of 4
same,survivor count,"dose: 30.0 mg/kg/injection, schedule: Q01DX001 (ip), vehicle: saline + alcohol","10 of 10 (2×), 8 of 8, 9 of 9"
same,survivor count,"dose: 32.0 mg/kg/injection, schedule: Q01DX001 (ip), vehicle: saline + alcohol",4 of 4
same,survivor count,"dose: 40.0 mg/kg/injection, schedule: Q01DX001 (ip), vehicle: saline + alcohol",10 of 10 and 9 of 9
same,survivor count,"dose: 40.0 mg/kg/injection, schedule: Q04DX003 (ip), vehicle: saline + alcohol",4 of 4
same,survivor count,"dose: 48.0 mg/kg/injection, schedule: Q01DX001 (ip), vehicle: saline + alcohol",4 of 4
same,survivor count,"dose: 60.0 mg/kg/injection, schedule: Q01DX001 (ip), vehicle: saline + alcohol",8 of 8
same,survivor count,"dose: 64.0 mg/kg/injection, schedule: Q01DX001 (ip), vehicle: saline + alcohol",4 of 4
same,survivor count,"dose: 80.0 mg/kg/injection, schedule: Q01DX001 (ip), vehicle: saline + alcohol",4 of 4
Nc1ncnc2c1ncn2C1OC(CO)C(O)C1O (configuration not stated),survivor count,"dose: 80.0 mg/kg/injection, schedule: Q03HX016 (ip), vehicle: saline",0 of 5
